In experiment [1] the target is RIP3 (Homo sapiens (Human), UniProt Q9Y572). The experiment can be described thus: KINOMEscan binding assay, RIP3. The settings on record: read-out: RIP3 (KD), Table 35.
In experiment [2] the target is MLKL (full length) (Homo sapiens (Human), UniProt Q8NB16). Nature of the experiment: KINOMEscan binding assay, MLKL (full length).
For experiment [3], the system named is U937 human histiocytic leukemia cell line. The experiment can be described thus: Cellular assay: inhibition of TSQ induced necroptosis (CellTitre-Glo). The settings on record: read-out: Inhibition of TSQ-induced necroptosis (IC50 cell-based assay); U937 cells, TSQ cocktail, 48 hours, Table 38.
Experiment [4] concerns the target endogenous MLKL in U937 (Homo sapiens (Human), UniProt Q8NB16). Nature of the experiment: Degradation assay: degradation of endogenous MLKL in human cells (Western blot). To be noted: read-out: Degradation of endogenous MLKL in U937 (DC50 cell-based assay in μM), 24 h incubation. (A western blot detects proteins with antibodies after separation by electrophoresis.)

Protein sequences, listed by entry. Tags and fused reporters are not part of them.
UniProt Q9Y572, whole entry: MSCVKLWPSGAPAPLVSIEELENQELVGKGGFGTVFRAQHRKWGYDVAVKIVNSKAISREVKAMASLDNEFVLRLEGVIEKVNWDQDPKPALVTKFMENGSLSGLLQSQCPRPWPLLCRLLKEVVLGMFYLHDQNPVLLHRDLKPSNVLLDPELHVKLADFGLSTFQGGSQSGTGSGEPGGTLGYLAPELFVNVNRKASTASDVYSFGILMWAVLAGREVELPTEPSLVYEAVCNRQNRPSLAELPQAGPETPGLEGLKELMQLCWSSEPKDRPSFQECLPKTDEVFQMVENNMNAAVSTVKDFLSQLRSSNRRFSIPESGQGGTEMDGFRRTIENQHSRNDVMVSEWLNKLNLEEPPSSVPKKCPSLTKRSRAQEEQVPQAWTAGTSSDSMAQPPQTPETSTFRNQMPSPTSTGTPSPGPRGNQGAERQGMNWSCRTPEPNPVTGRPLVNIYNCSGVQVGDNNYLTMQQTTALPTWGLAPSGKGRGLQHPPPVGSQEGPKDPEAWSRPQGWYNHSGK
UniProt Q8NB16, whole entry: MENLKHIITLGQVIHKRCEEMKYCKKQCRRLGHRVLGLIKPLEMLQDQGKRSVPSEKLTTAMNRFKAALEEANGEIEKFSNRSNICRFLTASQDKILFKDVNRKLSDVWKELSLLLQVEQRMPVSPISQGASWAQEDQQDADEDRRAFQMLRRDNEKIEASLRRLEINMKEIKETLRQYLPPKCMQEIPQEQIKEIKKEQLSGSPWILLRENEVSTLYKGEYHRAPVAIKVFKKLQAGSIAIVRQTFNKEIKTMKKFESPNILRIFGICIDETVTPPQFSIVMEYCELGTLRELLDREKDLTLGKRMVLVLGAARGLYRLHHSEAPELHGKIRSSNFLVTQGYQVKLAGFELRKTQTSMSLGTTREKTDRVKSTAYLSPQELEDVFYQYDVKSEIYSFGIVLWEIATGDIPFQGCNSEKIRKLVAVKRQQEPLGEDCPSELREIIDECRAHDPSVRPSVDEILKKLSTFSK

Experiment [5] concerns U937 cells. The experiment can be described thus: Counter screen: cell viability without TSQ cocktail (off-target effect). To be noted: read-out: Off-target effect (IC50 cell-based assay), Table 38. (In general: A counterscreen serves to expose hits that act by an unwanted route or on another target.)

Our source for the Kd, IC50 and DC50 values is US20250074891A1 (Anaxis Pharma Pty Ltd., priority 2021, published 2025).

pIC50, pKd: −log10 of the molar value. Like-named read-outs stand apart in the source and are kept apart here. The structures given here were assigned with low confidence; some may be wrong. Bounds are passed on as bounds.

A word on the pKd: it is the negative decadic logarithm of the Kd, by convention in mol/L. With `NC(=O)c1c(-c2ccc(NS(=O)(=O)Cc3cccc(Cl)c3)cc2)n[nH]c1Nc1cccc(C(F)(F)F)n1` [Compound 9, 3-(4-(((3-chlorophenyl)methyl)sulfonamido)phenyl)-5-((6-(trifluoromethyl)pyridin-2-yl)amino)-1H-pyrazole-4-carboxamide], the pKd was 4.52 to 6.00 in experiment [1] and 6.00 to 8.00 in experiment [2] (read-out: MLKL (KD), Table 35).

As usually defined, the pIC50 is the negative decadic logarithm of the IC50, by convention in mol/L. As a reminder, the DC50 is the midpoint of the concentration-degradation curve. Regarding `CCS(=O)(=O)Nc1ccc(-c2n[nH]c(Nc3ccc(C(=O)NCCCC(=O)N[C@H](C(=O)N4C[C@H](O)C[C@H]4C(=O)NCc4ccc(-c5scnc5C)cc4)C(C)(C)C)cn3)c2C(N)=O)cc1O[C@@H](C)c1ccc(F)cc1`, the pIC50 in experiment [3] is over 6.00; in experiment [5], under 5.00. Further, the DC50 in experiment [4] is under 1 µM. Also, in experiment [2] (read-out: MLKL (KD), Table 36), the pKd is over 8.00.
